Experimental data from article doi:10.1101/248914.
These are yes or no findings as the source states them, for the method shown. In cells and extracts the contact can be indirect. Binding calls can cover weak binding; strength is not graded here.

Sequences of proteins named here, by UniProt entry; tags and fusion partners are left off. A change or cut given only in a name is not applied to a line headed by its entry.
UniProt P18206: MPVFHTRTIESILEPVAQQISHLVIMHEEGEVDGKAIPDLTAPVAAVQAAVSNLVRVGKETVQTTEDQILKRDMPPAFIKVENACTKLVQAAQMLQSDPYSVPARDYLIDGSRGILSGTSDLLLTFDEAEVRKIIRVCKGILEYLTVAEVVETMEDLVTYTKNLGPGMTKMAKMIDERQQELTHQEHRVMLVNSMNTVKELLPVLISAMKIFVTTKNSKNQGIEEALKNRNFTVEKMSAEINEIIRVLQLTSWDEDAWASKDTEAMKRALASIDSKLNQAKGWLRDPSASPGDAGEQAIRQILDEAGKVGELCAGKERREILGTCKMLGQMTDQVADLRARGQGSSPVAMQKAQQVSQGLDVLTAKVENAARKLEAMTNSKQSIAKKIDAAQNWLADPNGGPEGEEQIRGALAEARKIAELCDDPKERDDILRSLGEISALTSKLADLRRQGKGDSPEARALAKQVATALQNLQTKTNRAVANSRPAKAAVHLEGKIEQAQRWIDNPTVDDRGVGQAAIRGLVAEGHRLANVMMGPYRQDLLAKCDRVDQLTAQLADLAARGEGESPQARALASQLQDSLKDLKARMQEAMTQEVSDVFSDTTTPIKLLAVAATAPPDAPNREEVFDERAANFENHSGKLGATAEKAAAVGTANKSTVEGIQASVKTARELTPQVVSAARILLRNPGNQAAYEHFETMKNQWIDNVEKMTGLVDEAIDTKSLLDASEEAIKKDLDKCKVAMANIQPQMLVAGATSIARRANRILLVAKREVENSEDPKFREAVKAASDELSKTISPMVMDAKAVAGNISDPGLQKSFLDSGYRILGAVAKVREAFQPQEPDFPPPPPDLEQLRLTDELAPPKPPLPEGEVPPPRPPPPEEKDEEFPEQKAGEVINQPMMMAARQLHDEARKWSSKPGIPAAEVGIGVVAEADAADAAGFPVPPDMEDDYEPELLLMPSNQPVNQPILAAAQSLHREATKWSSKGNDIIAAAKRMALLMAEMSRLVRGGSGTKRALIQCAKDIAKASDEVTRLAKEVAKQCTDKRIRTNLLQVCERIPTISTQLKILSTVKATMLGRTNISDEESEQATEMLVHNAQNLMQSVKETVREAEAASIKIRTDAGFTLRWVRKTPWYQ
UniProt O00401: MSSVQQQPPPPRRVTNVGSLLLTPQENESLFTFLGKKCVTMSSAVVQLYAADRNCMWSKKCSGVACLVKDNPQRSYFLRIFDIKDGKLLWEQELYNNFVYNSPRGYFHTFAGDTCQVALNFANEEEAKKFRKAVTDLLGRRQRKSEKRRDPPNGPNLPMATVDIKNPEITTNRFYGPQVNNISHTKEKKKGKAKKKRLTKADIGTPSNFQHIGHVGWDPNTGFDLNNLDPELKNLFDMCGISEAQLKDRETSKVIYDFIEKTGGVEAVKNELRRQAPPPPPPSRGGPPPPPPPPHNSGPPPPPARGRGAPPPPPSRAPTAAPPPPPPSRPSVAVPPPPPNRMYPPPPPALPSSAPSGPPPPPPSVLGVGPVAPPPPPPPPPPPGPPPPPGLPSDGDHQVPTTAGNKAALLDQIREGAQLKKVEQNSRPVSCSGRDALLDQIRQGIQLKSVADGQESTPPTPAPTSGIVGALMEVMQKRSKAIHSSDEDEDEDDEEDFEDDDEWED
UniProt O60234: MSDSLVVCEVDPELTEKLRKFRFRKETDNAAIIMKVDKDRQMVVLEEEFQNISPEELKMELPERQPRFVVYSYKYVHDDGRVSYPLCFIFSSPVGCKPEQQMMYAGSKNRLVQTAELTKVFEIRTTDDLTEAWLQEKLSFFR

Biological target: vinculin (human (endogenous in HASMC)) (UniProt P18206)
Experiment: co-IP

binding	Substance
binds	Neural Wiskott-Aldrich syndrome protein phosphorylated at tyrosine 256, N-WASP (pY256) (from UniProt O00401 1-505)
binds	Glia maturation factor-γ (GMFγ) (from UniProt O60234 1-142)
